Measurements: the supplement of paper PMC10032668
Some of the results follow. Only hits are listed; about a third recur on repeated control peptides.

The chains behind the UniProt entries cited, without tags or fusion partners.
STAT3, P40763, UniProt P40763, whole entry: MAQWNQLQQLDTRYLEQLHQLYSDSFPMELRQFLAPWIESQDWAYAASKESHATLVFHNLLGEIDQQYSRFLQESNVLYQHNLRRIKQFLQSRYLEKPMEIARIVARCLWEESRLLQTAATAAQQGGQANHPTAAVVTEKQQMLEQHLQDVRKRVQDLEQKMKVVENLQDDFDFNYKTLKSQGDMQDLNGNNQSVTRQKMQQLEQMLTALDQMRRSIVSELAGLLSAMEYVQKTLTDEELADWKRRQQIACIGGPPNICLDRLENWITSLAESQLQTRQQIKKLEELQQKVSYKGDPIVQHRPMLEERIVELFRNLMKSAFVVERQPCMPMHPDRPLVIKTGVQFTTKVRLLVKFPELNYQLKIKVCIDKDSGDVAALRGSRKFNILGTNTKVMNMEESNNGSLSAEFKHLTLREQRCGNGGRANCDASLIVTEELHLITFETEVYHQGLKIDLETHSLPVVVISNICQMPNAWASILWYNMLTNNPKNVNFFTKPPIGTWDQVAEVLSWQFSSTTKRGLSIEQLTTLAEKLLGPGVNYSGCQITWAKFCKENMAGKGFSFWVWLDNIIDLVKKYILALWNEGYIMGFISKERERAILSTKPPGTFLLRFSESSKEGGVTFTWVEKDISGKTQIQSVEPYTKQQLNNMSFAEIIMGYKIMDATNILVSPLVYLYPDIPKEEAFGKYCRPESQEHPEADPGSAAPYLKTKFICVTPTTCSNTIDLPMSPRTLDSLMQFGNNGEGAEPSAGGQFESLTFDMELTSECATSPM
CASC3, O15234, UniProt O15234, whole entry: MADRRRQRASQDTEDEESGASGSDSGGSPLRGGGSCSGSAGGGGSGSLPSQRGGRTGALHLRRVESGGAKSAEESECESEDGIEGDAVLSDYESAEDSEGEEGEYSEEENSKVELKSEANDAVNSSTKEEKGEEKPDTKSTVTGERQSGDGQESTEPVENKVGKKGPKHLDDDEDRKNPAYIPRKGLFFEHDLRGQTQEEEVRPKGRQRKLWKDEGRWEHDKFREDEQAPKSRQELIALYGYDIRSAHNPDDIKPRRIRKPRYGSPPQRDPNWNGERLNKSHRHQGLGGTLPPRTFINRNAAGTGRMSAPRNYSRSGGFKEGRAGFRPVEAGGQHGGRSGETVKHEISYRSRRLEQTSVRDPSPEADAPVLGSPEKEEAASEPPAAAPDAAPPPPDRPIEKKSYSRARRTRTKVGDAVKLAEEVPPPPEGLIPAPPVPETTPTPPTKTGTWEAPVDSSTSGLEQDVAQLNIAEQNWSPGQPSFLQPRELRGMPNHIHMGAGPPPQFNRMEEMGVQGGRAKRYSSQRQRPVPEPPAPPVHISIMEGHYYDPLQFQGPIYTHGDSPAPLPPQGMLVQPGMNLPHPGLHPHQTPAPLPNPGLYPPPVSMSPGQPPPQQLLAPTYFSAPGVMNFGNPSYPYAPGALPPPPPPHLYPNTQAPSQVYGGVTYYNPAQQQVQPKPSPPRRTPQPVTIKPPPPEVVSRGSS
NCAPD2, Q15021, UniProt Q15021, whole entry: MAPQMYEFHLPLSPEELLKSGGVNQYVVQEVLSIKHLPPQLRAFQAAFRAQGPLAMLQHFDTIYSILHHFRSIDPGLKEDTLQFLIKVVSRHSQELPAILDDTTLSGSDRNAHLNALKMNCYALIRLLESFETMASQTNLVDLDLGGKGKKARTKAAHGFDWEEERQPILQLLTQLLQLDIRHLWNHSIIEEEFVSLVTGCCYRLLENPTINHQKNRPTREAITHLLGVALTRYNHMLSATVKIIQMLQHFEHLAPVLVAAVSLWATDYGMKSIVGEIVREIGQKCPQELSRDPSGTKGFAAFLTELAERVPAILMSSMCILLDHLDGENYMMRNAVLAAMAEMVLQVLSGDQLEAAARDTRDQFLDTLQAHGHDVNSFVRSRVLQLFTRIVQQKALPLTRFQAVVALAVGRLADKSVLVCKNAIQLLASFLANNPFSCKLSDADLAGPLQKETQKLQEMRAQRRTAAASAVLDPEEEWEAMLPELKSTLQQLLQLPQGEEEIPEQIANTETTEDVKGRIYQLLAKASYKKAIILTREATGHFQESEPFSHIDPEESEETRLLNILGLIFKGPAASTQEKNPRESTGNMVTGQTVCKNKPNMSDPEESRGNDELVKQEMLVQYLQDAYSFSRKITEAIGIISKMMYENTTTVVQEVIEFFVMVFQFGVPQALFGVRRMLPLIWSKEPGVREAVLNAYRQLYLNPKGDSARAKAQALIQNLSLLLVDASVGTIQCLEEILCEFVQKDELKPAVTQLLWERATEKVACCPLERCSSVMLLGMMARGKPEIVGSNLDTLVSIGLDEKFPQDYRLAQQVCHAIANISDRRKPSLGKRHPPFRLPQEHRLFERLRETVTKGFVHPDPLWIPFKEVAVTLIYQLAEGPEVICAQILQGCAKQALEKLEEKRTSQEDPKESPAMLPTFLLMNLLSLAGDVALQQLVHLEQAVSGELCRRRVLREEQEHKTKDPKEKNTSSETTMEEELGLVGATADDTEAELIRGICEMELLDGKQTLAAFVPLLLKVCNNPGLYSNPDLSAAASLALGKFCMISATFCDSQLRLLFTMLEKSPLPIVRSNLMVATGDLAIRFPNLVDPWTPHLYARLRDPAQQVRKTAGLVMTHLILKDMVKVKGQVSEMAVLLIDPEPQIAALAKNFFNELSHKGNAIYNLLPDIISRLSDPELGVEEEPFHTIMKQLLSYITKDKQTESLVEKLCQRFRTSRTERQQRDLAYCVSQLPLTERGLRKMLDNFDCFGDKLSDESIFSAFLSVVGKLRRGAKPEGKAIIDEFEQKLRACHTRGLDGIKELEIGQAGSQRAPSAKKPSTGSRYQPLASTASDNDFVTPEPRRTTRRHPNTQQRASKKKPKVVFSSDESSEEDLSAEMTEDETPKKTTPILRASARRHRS
RBBP7, Q16576, UniProt Q16576, whole entry: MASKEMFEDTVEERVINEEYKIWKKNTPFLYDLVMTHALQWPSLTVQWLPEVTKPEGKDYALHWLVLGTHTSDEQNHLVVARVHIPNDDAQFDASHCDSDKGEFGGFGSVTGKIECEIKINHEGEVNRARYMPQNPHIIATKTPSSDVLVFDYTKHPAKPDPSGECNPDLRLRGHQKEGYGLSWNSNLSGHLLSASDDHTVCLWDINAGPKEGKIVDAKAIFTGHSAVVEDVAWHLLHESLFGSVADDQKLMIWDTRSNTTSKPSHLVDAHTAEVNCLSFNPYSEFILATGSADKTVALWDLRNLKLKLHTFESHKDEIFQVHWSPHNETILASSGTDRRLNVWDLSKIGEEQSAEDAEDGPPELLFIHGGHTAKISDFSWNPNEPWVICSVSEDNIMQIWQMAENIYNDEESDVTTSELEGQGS
SERPINA1, P01009, UniProt P01009, whole entry: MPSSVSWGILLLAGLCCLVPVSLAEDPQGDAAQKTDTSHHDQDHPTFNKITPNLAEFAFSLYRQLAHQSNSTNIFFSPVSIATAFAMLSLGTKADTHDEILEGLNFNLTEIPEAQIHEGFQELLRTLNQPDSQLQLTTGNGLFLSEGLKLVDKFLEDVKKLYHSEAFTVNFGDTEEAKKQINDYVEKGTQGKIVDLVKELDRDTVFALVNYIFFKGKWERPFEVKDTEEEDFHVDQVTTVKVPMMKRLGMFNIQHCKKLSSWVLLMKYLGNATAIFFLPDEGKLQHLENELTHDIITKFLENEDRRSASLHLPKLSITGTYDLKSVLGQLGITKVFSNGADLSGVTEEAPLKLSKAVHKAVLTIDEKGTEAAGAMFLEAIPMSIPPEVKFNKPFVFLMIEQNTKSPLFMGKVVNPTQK
SMARCE1, Q969G3, UniProt Q969G3, whole entry: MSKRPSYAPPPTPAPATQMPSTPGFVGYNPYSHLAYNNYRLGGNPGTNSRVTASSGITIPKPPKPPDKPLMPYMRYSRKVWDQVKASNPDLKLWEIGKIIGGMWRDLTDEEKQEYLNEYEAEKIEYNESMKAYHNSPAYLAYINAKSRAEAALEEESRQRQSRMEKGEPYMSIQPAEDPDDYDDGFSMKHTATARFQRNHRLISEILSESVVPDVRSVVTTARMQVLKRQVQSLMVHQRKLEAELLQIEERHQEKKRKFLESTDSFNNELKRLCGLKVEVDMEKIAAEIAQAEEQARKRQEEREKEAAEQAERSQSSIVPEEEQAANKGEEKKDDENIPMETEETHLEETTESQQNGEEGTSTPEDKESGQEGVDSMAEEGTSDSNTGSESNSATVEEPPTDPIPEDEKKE
SRSF9, Q13242, UniProt Q13242, whole entry: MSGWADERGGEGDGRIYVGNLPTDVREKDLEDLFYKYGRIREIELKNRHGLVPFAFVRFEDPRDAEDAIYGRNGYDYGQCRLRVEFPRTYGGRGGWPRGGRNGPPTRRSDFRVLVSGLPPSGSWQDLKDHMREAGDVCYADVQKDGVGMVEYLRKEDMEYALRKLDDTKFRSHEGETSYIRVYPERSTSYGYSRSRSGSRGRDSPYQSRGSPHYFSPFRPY
TPM4, P67936, UniProt P67936, whole entry: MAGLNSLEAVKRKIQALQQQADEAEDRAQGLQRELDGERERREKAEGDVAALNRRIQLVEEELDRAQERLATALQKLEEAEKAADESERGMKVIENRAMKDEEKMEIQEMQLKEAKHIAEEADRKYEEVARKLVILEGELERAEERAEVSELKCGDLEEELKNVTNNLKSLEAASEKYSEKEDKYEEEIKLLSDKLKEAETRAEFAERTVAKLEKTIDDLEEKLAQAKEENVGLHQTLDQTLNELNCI

B1: JPX (peptide)
chain: VRSMSPLTKVQKLAS
B2: MKKS (peptide)
chain: DIPEQDSLGLSNLQK

Legend:
Test in all cases: PRISMA enrichment of interactor (LFQ) in peptide spot vs all other peptide spots (log2 fold change); higher = stronger / more specific binding of the interactor to the peptide
ABCD3, P28288 = biological target: ABCD3, P28288
Procedure: (§1)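 PRISMA: 15-aa overlapping tiles (offset 8 aa) of 60 microproteins, plus SOS1/GLUT1 control peptides, were spot-synthesized on cellulose membranes in triplicate. Membranes were incubated with benzonase-treated HEK293T lysate, and bound proteins were identified by LC-MS/MS with LFQ. Enrichment is the log2 fold change of each protein in one spot versus all other spots. Only interactors passing the significance cutoff are listed.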

ASNS, P08243 = biological target: ASNS, P08243
Procedure: as §1

PPP1R2, P41236 = biological target: PPP1R2, P41236
Procedure: as §1

STAT3, P40763 = biological target: STAT3, P40763
Procedure: as §1

SYAP1, Q96A49 = biological target: SYAP1, Q96A49
Procedure: as §1

ADNP, Q9H2P0 = biological target: ADNP, Q9H2P0
Procedure: as §1

AGBL5, Q8NDL9 = biological target: AGBL5, Q8NDL9
Procedure: as §1

CASC3, O15234 = biological target: CASC3, O15234
Procedure: as §1

CIAO1, O76071 = biological target: CIAO1, O76071
Procedure: as §1

CTNND1, O60716 = biological target: CTNND1, O60716
Procedure: as §1

DAP3, P51398 = biological target: DAP3, P51398
Procedure: as §1

FKBP4, Q02790 = biological target: FKBP4, Q02790
Procedure: as §1

GNL2, Q13823 = biological target: GNL2, Q13823
Procedure: as §1

HS2ST1, Q7LGA3 = biological target: HS2ST1, Q7LGA3
Procedure: as §1

LRRC40, Q9H9A6 = biological target: LRRC40, Q9H9A6
Procedure: as §1

MAEA, Q7L5Y9 = biological target: MAEA, Q7L5Y9
Procedure: as §1

MDC1, Q14676 = biological target: MDC1, Q14676
Procedure: as §1

MRPS14, O60783 = biological target: MRPS14, O60783
Procedure: as §1

NCAPD2, Q15021 = biological target: NCAPD2, Q15021
Procedure: as §1

NUP93, Q8N1F7 = biological target: NUP93, Q8N1F7
Procedure: as §1

ODF2, Q5BJF6 = biological target: ODF2, Q5BJF6
Procedure: as §1

RBBP7, Q16576 = biological target: RBBP7, Q16576
Procedure: as §1

RIOK1, Q9BRS2 = biological target: RIOK1, Q9BRS2
Procedure: as §1

RIOK2, Q9BVS4 = biological target: RIOK2, Q9BVS4
Procedure: as §1

SERPINA1, P01009 = biological target: SERPINA1, P01009
Procedure: as §1

SMARCE1, Q969G3 = biological target: SMARCE1, Q969G3
Procedure: as §1

SRSF5, Q13243 = biological target: SRSF5, Q13243
Procedure: as §1

SRSF9, Q13242 = biological target: SRSF9, Q13242
Procedure: as §1

TAOK2, Q9UL54 = biological target: TAOK2, Q9UL54
Procedure: as §1

TPM4, P67936 = biological target: TPM4, P67936
Procedure: as §1

TRMT10C, Q7L0Y3 = biological target: TRMT10C, Q7L0Y3
Procedure: as §1

XPO4, Q9C0E2 = biological target: XPO4, Q9C0E2
Procedure: as §1

YTHDF3, Q7Z739 = biological target: YTHDF3, Q7Z739
Procedure: as §1

Row | Binder | PRISMA enrichment of interactor (log2) (ABCD3, P28288) | PRISMA enrichment of interactor (log2) (ASNS, P08243) | PRISMA enrichment of interactor (log2) (PPP1R2, P41236) | PRISMA enrichment of interactor (log2) (STAT3, P40763) | PRISMA enrichment of interactor (log2) (SYAP1, Q96A49) | PRISMA enrichment of interactor (log2) (ADNP, Q9H2P0) | PRISMA enrichment of interactor (log2) (AGBL5, Q8NDL9) | PRISMA enrichment of interactor (log2) (CASC3, O15234) | PRISMA enrichment of interactor (log2) (CIAO1, O76071) | PRISMA enrichment of interactor (log2) (CTNND1, O60716) | PRISMA enrichment of interactor (log2) (DAP3, P51398) | PRISMA enrichment of interactor (log2) (FKBP4, Q02790) | PRISMA enrichment of interactor (log2) (GNL2, Q13823) | PRISMA enrichment of interactor (log2) (HS2ST1, Q7LGA3) | PRISMA enrichment of interactor (log2) (LRRC40, Q9H9A6) | PRISMA enrichment of interactor (log2) (MAEA, Q7L5Y9) | PRISMA enrichment of interactor (log2) (MDC1, Q14676) | PRISMA enrichment of interactor (log2) (MRPS14, O60783) | PRISMA enrichment of interactor (log2) (NCAPD2, Q15021) | PRISMA enrichment of interactor (log2) (NUP93, Q8N1F7) | PRISMA enrichment of interactor (log2) (ODF2, Q5BJF6) | PRISMA enrichment of interactor (log2) (RBBP7, Q16576) | PRISMA enrichment of interactor (log2) (RIOK1, Q9BRS2) | PRISMA enrichment of interactor (log2) (RIOK2, Q9BVS4) | PRISMA enrichment of interactor (log2) (SERPINA1, P01009) | PRISMA enrichment of interactor (log2) (SMARCE1, Q969G3) | PRISMA enrichment of interactor (log2) (SRSF5, Q13243) | PRISMA enrichment of interactor (log2) (SRSF9, Q13242) | PRISMA enrichment of interactor (log2) (TAOK2, Q9UL54) | PRISMA enrichment of interactor (log2) (TPM4, P67936) | PRISMA enrichment of interactor (log2) (TRMT10C, Q7L0Y3) | PRISMA enrichment of interactor (log2) (XPO4, Q9C0E2) | PRISMA enrichment of interactor (log2) (YTHDF3, Q7Z739)
1 | B1 | 4.88 | 5.35 | 4.28 | 4.12 | 6.08 | – | – | – | – | – | – | – | – | – | – | – | – | – | – | – | – | – | – | – | – | – | – | – | – | – | – | – | –
2 | B2 | 5.69 | – | – | – | – | 5.76 | 4.86 | 4.76 | 4.55 | 5.34 | 4.62 | 4.68 | 4.81 | 5.71 | 5.25 | 4.58 | 5.71 | 5.44 | 6.61 | 4.67 | 6.94 | 5.45 | 5.95 | 5.96 | 4.73 | 5.29 | 4.35 | 5.53 | 7.27 | 3.96 | 4.66 | 4.49 | 4.63
